Assay results from PMC11811815.
Changes are numbered by the printed parent chain. Names and notes keep the numbering of the source. Results are given in words; binding and its absence hold for the method and conditions named. Binding seen in cells or lysates may run through a third protein. Some results given as binding are weak or reduced against the parent protein; the word gives no strength. Tags and fused reporters may be left off the sequences shown.

By UniProt entry, the sequences of proteins in these tests, tags left out.
UniProt P52630: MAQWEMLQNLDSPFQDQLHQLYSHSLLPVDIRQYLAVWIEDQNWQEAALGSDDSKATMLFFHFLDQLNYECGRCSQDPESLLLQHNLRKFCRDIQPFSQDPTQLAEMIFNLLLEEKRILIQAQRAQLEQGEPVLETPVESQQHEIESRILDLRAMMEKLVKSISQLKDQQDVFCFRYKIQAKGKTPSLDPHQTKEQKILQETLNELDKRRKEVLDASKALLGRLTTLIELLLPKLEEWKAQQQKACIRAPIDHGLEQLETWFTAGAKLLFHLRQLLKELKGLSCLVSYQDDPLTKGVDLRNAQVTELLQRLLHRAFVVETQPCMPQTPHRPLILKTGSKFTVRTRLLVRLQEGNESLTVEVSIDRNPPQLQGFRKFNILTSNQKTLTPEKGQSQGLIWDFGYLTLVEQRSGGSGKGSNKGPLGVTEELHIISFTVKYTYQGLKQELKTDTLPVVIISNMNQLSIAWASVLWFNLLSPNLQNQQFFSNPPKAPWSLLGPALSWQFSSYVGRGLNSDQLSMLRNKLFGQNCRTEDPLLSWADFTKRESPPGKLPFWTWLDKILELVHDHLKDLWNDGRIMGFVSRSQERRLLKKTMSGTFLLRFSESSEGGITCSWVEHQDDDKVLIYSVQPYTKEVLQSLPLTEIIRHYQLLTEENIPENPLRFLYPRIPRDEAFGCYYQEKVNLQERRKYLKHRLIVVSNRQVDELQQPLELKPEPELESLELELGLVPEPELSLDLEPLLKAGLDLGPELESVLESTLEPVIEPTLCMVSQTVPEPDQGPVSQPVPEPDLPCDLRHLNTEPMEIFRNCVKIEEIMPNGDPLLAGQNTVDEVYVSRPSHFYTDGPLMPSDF

T1: V5-tagged IFNAR2 cytosolic domain (aa 265-515) (UniProt P48551)
T1 sequence: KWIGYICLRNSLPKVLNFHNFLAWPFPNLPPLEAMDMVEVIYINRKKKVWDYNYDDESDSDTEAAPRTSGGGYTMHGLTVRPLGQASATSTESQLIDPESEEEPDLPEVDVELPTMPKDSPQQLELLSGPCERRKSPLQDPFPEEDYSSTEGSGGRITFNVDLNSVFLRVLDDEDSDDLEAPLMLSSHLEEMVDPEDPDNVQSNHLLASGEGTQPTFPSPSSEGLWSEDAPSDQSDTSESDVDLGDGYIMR

B1: USP18.I60N-3XFlag (enzyme, UniProt Q9UMW8-1 1-372)
chain: MSKAFGLLRQICQSILAESSQSPADLEEKKEEDSNMKREQPRERPRAWDYPHGLVGLHNNGQTCCLNSLIQVFVMNVDFTRILKRITVPRGADEQRRSVPFQMLLLLEKMQDSRQKAVRPLELAYCLQKCNVPLFVQHDAAQLYLKLWNLIKDQITDVHLVERLQALYTIRVKDSLICVDCAMESSRNSSMLTLPLSLFDVDSKPLKTLEDALHCFFQPRELSSKSKCFCENCGKKTRGKQVLKLTHLPQTLTIHLMRFSIRNSQTRKICHSLYFPQSLDFSQILPMKRESCDAEEQSGGQYELFAVIAHVGMADSGHYCVYIRNAVDGKWFCFNDSNICLVSWEDIQCTYGNPNYHWQETAYLLVYMKMEC
B2: USP18.wt-3XFlag (enzyme, UniProt Q9UMW8-1 1-372)
chain: B1 chain with N60I
B3: USP18.C64S-3XFlag (enzyme, UniProt Q9UMW8-1 1-372)
chain: B1 chain with N60I, C64S

molecular target: T1, V5-tagged IFNAR2 cytosolic domain (aa 265-515); test: co-IP; HEK293T co-transfected with IFNAR2.CTD-V5, STAT2-Myc and Flag-tagged USP18 (wt, I60N or C64S); lysed 48 h after transfection; anti-V5 antibody on protein G Dynabeads; blot for V5, STAT2 and USP18

binding | Molecule
binds | Myc-tagged STAT2 (from UniProt P52630 1-851)
binds | B1
binds | B2
binds | B3
